# Source: PubChem BioAssay AID651640 (Broad Institute, 2012)
# About 6,000 (1.7%) of roughly 350,000 compounds were called active. Inconclusive means that the source gave no clear call. Such entries were picked first, then a sample of the others. Rule as the data show it: active = CPE inhibition above about 20% (passing the limit was not always enough); inconclusive = no clear call, values can overlap the other calls; tested in BHK-21 cells.
# Assay: protection of cells from dengue 2 killing – plate reader, single concentration, primary screen (AID 651640);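 also: 0% = median of neutral control wells and 100% = median of positive control wells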
# Conditions: DENV2-infected cells, cytopathic effect rescue, at 9.99 µM, stronger effect = higher value
row,SMILES,CPE inhibition
1,Cc1ccc(/C=C/C(=O)NCCCn2ccnc2)cc1,inconclusive: 62.1%
2,COc1ccc(NC(=O)Nc2cccc3c2O[C@H](CN(C)C(=O)Nc2c(C)noc2C)[C@@H](C)CN([C@H](C)CO)C3=O)cc1,inconclusive: 49.7%
3,Cc1ccc(NC2CCCN(C(=O)c3ccnc(Cl)c3)C2)cc1C (stereo not given),inconclusive: 27.2%
4,N#C[C@H]1[C@@H](c2ccccc2C2=CCCC2)[C@@H](CO)N1C(=O)C1CCOCC1,active: 35.6%
5,Cc1ccc(S(=O)(=O)Nn2c(O)c(C=C3N=c4ccccc4=N3)sc2=S)cc1,inconclusive: 22.4%
6,CCCC(=O)Nc1ccc2c(c1)OC[C@H](C)N(CCC(F)(F)F)C[C@H](C)[C@@H](OC)CN(C)C2=O,active: 30.5%
7,COc1cc2c(c(OC)c1OC)-c1ccc(NCc3ccccc3)c(=O)cc1C(NC(C)=O)CC2 (stereo not given),inconclusive: 61.8%
8,CCNC(=O)Nc1ccc2c(c1)C(=O)N(C)[C@@H]1CC[C@@H](CC(=O)NC3CCCCC3)O[C@H]1CO2,inconclusive: 37.5%
9,Cc1cc(C)nc(N/N=C/c2ccccc2OCc2ccccc2)n1,active: 78.5%
10,C=C(C)CN1CCN(c2ccc(N3C(=O)CCCC3=O)cc2[N+](=O)[O-])CC1,inactive: -0.372%
11,COc1ccc(S(=O)(=O)Nc2ccc3c(c2)CC(=O)N([C@@H](C)CO)C[C@@H](C)[C@H](CN(C)CC2CCCCC2)O3)cc1,inactive: -3.13%
12,CN1C(=O)c2cc(NC(=O)c3cccs3)ccc2OC[C@H]2O[C@@H](CC(=O)NCC3CC3)CC[C@H]21,inactive: 19.5%
13,COC(=O)Cc1coc2cc(OC)ccc12,inconclusive: 63.5%
14,C[C@@H]1CN([C@@H](C)CO)S(=O)(=O)c2ccc(C#CCN(C)C)cc2O[C@@H]1CN(C)C,inactive: -2.58%
15,CCOc1ccc(S(=O)(=O)Nc2cccc(C(=O)NCC(c3ccc(OC)cc3)N3CCOCC3)c2)cc1 (stereo not given),inconclusive: 20.2%
16,COc1cccc(CNC(=O)[C@H]2CCCN2C(=O)C2CCCN2C(=O)c2ccc(OC)c(F)c2)c1 (stereo not given in full),active: 27.7%
17,Cn1c(CNS(=O)(=O)c2ccc(Cl)cc2)cc(=O)n(C)c1=O,inactive: 9.82%
18,O=C(NC[C@@H]1[C@@H](c2ccccc2)[C@@H](CO)N1C(=O)C1CCC1)NC1CCCC1,inconclusive: 13.5%
19,Cc1ccccc1Nc1nc(N2CCOCC2)nc(N2CCOCC2)n1,inconclusive: 23.6%
20,COc1cccc(-c2ccc3n(c2=O)C[C@H]2[C@H](CO)[C@@H](C(=O)NCC4CC4)N(C(=O)NC(C)C)[C@@H]32)c1,inactive: 8.28%
21,C[C@H]1CN([C@@H](C)CO)C(=O)c2cc(Br)cnc2O[C@@H]1CN(C)C(=O)c1ccc(F)cc1,inactive: 0.155%
22,O=C(NNC(=O)C1CC1)c1cccc([N+](=O)[O-])c1,inconclusive: 67.7%
23,COc1ccc(CNC(=O)CCN2C(=O)[C@@H]3Cc4ccccc4CN3C2=O)cc1,inconclusive: 21.3%
24,CCOc1cc(/C=N\NC(=O)c2c(C)nc3ccccn23)ccc1O,inconclusive: 37.5%
25,COc1ccc(N(CC(=O)Nc2ccccc2C(=O)O)S(=O)(=O)c2ccc(C)c([N+](=O)[O-])c2)cc1,inconclusive: 45.1%

# A second format for part of the listing above:
row | SMILES | CPE inhibition
3 | Cc1ccc(NC2CCCN(C(=O)c3ccnc(Cl)c3)C2)cc1C (stereo not given) | inconclusive: 27.2%
5 | Cc1ccc(S(=O)(=O)Nn2c(O)c(C=C3N=c4ccccc4=N3)sc2=S)cc1 | inconclusive: 22.4%

# Remaining list, next part.

row,SMILES,CPE inhibition
1,O=C(NNC(=O)c1ccc(F)c(S(=O)(=O)N2CCOCC2)c1)c1ccc(Br)cc1,inconclusive: 32%
2,C[C@H](CO)N1C[C@H](C)[C@H](CN(C)Cc2ccc(-c3ccccc3)cc2)Oc2ccc(NC(=O)CCC(F)(F)F)cc2C1=O,inconclusive: 25%
3,Cc1ccc(C(=O)NNC2=Nc3cc([N+](=O)[O-])ccc3OC2)cc1,inconclusive: 22.3%
4,CNc1nc(NCCOc2ccccc2Cl)c2sccc2n1,inactive: -8.02%
5,O=C(C[C@H]1CC[C@H]2[C@@H](COC[C@@H](O)CN2CC2CCOCC2)O1)NCC1CC1,inconclusive: 47%
6,CC1(C)Cc2ccccc2C2=NNC(=O)C2=N1,inconclusive: 27.6%
7,COc1cc(CNc2cccc3[nH]c(C(F)(F)F)nc23)cc(OC)c1,inconclusive: 35.6%
8,O=S(=O)(Cc1ccccc1)C(c1ccccc1)S(=O)(=O)Cc1ccccc1,inconclusive: 60.5%
9,CCN(CC)c1ccc(/C=N/N2C(=O)c3ccccc3C2=O)c(O)c1,active: 42.4%
10,O=C(O)c1ccc(O)cc1O,active: 66.9%
11,COC(=O)c1ccc(NS(=O)(=O)c2ccc3c(c2)oc(=O)n3C)cc1,inconclusive: 50.5%
12,O=C(CN1CCOCC1)N1CCCCN2[C@H](CO)[C@H](c3ccc(/C=C/c4ccccc4)cc3)[C@@H]2C1,inconclusive: 20.2%
13,O=C(c1cc(Br)c(Br)s1)N1CCOCC1,inactive: -0.033%
14,CC=Cc1ccc2n(c1=O)C[C@H]1[C@H](CO)[C@@H](C(=O)NCCc3ccncc3)N(CCC(F)(F)F)[C@@H]21 (mixture of isomers),inconclusive: 58.4%
15,C[C@@H]1CN([C@H](C)CO)C(=O)CCCn2cc(nn2)CO[C@H]1CN(C)Cc1cccc2c1OCCCO2,inconclusive: 26%
16,O=C(C[C@H]1C/C=C\C[C@H](NC(=O)OCC2c3ccccc3-c3ccccc32)C(=O)OC[C@@H]2CCCN2C1=O)NCCO,inconclusive: 40.3%
17,O=C1CCC/C=C/C[C@H](CC(=O)N(CCO)Cc2ccccc2)C(=O)N[C@@H](Cc2ccccc2)CO1,active: 24.8%
18,CCC(C)N(Cc1ccc(OC)cc1OC)S(=O)(=O)c1cc(Br)ccc1Br (stereo not given),inconclusive: 45.2%
19,C[C@@H]1CCCCO[C@@H](CN(C)S(=O)(=O)c2ccc(Cl)cc2)[C@@H](C)CN([C@H](C)CO)C(=O)c2cc(NS(=O)(=O)c3ccc(F)cc3)ccc2O1,inconclusive: 27.3%
20,O=C(Nc1c(-c2ccccc2)[nH][nH]c1=O)c1ccco1,inconclusive: 31.1%
21,CN(C)C(=O)C[C@H]1C[C@H]2c3cc(NC(=O)Nc4ccc(C(F)(F)F)cc4)ccc3O[C@H]2[C@@H](CO)O1,inconclusive: 24%
22,CCOc1cccc2sc(N(CCCN(C)C)C(=O)c3ccc(S(=O)(=O)N(C)Cc4ccccc4)cc3)nc12,inactive: -4.58%
23,CN(C)C(=O)C[C@@H]1CC[C@@H](NC(=O)c2ccc(F)cc2)[C@H](CO)O1,active: 45.2%
24,COc1cc(OC)cc(-c2sc3ccc(OC)cc3c2C#CCCO)c1,inconclusive: 107%
25,c1ccc(-c2noc(-c3ccno3)n2)nc1,inconclusive: 22.4%

# In another format: results already given.
row	SMILES	CPE inhibition
10	O=C(O)c1ccc(O)cc1O	active: 66.9%
11	COC(=O)c1ccc(NS(=O)(=O)c2ccc3c(c2)oc(=O)n3C)cc1	inconclusive: 50.5%
12	O=C(CN1CCOCC1)N1CCCCN2[C@H](CO)[C@H](c3ccc(/C=C/c4ccccc4)cc3)[C@@H]2C1	inconclusive: 20.2%

# Next entries follow.

row,SMILES,CPE inhibition
1,C[C@H](CO)N1C[C@H](C)[C@@H](CN(C)C(=O)C2CC2)OCc2ccccc2-c2ccccc2C1=O,inactive: 3.09%
2,C[C@@H]1CN([C@H](C)CO)C(=O)c2cccc(NC(=O)C3CC3)c2O[C@H]1CN(C)CC1CCCCC1,active: 75.1%
3,O=C(Nc1ccccc1)Nc1ccc(Oc2cccnc2)nc1,inconclusive: 30.2%
4,CCc1ccccc1NC(=O)c1cnc2n(c1=O)CCS2,active: 34.8%
5,COC(=O)C[C@H]1CC[C@H]2[C@@H](COc3ccc(NC(=O)Nc4c(C)noc4C)cc3C(=O)N2C)O1,inactive: 12.4%
6,CCc1cccc(C)c1NC(=O)CSc1nc2ccncc2[nH]1,inconclusive: 35.7%
7,O=C(c1ccc(CSc2nc3ccncc3[nH]2)cc1)N1CCN(c2cccc(Cl)c2)CC1,inconclusive: 39.5%
8,O=C(NC(=S)NNC(=O)c1cc2ccccc2cc1O)c1ccco1,inconclusive: 45%
9,CCOc1ccc(C(C)=O)cc1CN1C(=O)NC2(CCCCCCC2)C1=O,inactive: 6.53%
10,CC(=O)c1cccc(NS(=O)(=O)c2csc(C(N)=O)c2)c1,inconclusive: 27.6%
11,CN(C)C(=O)C[C@@H]1CC[C@@H]2[C@H](COc3ccc(NC(=O)C4CCCCC4)cc3C(=O)N2C)O1,active: 27.9%
12,C[C@H](CO)N1C[C@H](C)[C@@H](CN(C)Cc2ccccc2)Oc2ccc(NC(=O)C3CCCCC3)cc2CC1=O,active: 37.7%
13,CC(C(=O)O)c1ccc(N2Cc3ccccc3C2=O)cc1 (stereo not given),inconclusive: 46.2%
14,C[C@H](CO)N1C[C@H](C)[C@@H](CN(C)C(=O)Nc2ccccc2)Oc2c(NC(=O)Nc3ccc4c(c3)OCO4)cccc2C1=O,inconclusive: 52.1%
15,CN(C)c1ccc(C(=O)NCC(c2cccs2)N2CCOCC2)cc1[N+](=O)[O-] (stereo not given),inconclusive: 91.2%
16,CCOC(=O)C1(CCOc2ccccc2)CCN(Cc2ccc3c(c2)OCCO3)CC1,inconclusive: 54.3%
17,COc1ccc(S(=O)(=O)N(C)C[C@@H]2Oc3ccc(NC(=O)CCC(F)(F)F)cc3CC(=O)N([C@@H](C)CO)C[C@H]2C)cc1,active: 25.4%
18,O=C(Nc1nncs1)c1ccc(F)c(S(=O)(=O)N2CCCCC2)c1,inconclusive: 50.1%
19,COc1ccc(CC(=O)OCC(=O)NC(=O)NC2CCCC2)cc1,inactive: -5.43%
20,CN(C)CCOc1ccc(/C(=C(/CCCl)c2ccccc2)c2ccccc2)cc1,inactive: -6.17%
21,Cc1cc(=O)nc2c3ccccc3n(C(C)C(=O)NCCN3CCOCC3)n12 (stereo not given),active: 35.3%
22,O=C(Cn1nc(-c2ccccc2)ccc1=O)N1CCOCC1,inconclusive: 25.9%
23,COc1ccc(S(=O)(=O)Nc2ccc3c(c2)CC(=O)N([C@@H](C)CO)C[C@H](C)[C@@H](CN(C)Cc2ccc4c(c2)OCO4)O3)cc1,inactive: 1.96%
24,COc1ccc(NC(=O)N(C)C[C@@H]2Oc3ccc(NC(=O)Nc4cccc5ccccc45)cc3C(=O)N([C@H](C)CO)C[C@@H]2C)cc1,inconclusive: 31.1%
25,CCCNC(=O)N1CC2(CCN(C(=O)COC)CC2)c2c(n(C)c3cc(OC)ccc23)[C@@H]1CO,active: 69.8%
